The full ranking holds about 33,000 sequences; the median of “E-score (-0.5 to 0.5)” is about -0.015, and the highest 2% start at about 0.3. The list shows a part of the results.
biological target: T1, Abf1 (UniProt P14164); experiment: PBM E-score (8-mer binding enrichment) (E-score (-0.5 to 0.5)); higher = stronger / more preferred TF binding; details: protein concentration: 200 nM; construct: GST-full length
T1 sequence: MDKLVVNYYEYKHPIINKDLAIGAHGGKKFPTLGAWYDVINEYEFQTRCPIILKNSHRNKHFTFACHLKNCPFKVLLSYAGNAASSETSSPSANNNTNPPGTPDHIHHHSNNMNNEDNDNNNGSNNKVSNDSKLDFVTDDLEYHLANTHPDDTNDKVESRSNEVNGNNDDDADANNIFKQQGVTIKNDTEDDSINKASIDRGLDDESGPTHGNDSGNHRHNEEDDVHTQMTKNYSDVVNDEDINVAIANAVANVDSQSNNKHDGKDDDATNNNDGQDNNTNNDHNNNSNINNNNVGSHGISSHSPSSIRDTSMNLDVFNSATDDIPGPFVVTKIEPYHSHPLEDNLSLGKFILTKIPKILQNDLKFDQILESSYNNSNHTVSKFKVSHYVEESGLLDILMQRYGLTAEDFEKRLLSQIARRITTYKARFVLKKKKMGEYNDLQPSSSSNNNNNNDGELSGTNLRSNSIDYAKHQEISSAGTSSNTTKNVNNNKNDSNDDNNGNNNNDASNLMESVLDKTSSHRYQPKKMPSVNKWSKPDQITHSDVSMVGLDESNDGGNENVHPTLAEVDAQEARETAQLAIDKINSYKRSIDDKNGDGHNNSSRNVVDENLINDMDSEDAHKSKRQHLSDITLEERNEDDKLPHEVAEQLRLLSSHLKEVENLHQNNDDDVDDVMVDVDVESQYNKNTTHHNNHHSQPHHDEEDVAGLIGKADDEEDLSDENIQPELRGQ
How it was run: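 Full-length yeast transcription factors or their DNA-binding domains, GST-tagged and expressed with PURExpress, were applied at about 100-200 nM to universal all-10-mer Agilent arrays. These arrays had been made double-stranded by primer extension on fresh or once-stripped slides. Detection used fluorescent anti-GST, normalisation used masliner, and E-scores for ungapped eight-base words pooled with reverse complements came from the Universal PBM Analysis Suite.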

Row | Sequence | PBM E-score
1 | ACCTTGCT | -0.129
2 | ATATGGAT | 0.164
3 | CTGTCTTC | -0.132
4 | CAAAGCAC | 0.103
5 | ACTTCGGG | -0.239
6 | AAAGTCCC | -0.0958
7 | GGGGATCA | -0.0388
8 | GGGCTTGA | -0.189
9 | CCAATTGC | -0.102
10 | ACACAGGG | -0.0866
11 | TTCAACAA | 0.00101
12 | CCAACTAG | 0.0426
13 | GCCGAACA | 0.0292
14 | CATGGCAA | 0.00264
15 | AACCTGAA | -0.274
16 | TGCTGTAA | 0.172
17 | AAATTATT | 0.215
18 | AAGTAGAC | -0.0464
19 | CCCGAATA | 0.0145
20 | TCTATCCA | 0.0772
21 | AGTTGTCA | 0.253
22 | TAGACACA | -0.186
23 | ACTTATCA | 0.231
24 | ATAAGGGG | -0.0385
25 | GCCTCAAC | -0.103

Row | Sequence | PBM E-score
26 | TAATGCCA | -0.0319
27 | GAATCAAA | -0.0532
28 | ATACTTAC | 0.231
29 | CGATGCAG | -0.121
30 | ACTTCCTG | 0.00876
31 | GCGATATA | 0.368
32 | AAGAAGAA | 0.145
33 | CGGAACAC | 0.156
34 | AGTCGTTG | 0.0688
35 | ATACGCGC | 0.00524
36 | CAGAGGGA | -0.0392
37 | ATGTCGCA | 0.203
38 | AGGTGTTC | -0.0567
39 | CCTACCGC | -0.255
40 | AGCTATTG | -0.14
41 | CAGGGGGG | -0.308
42 | CTAGGAAA | -0.0957
43 | AGGGACGA | 0.24
44 | CAAGTAGA | -0.246
45 | CCGGCAAC | -0.251
46 | TGCATTAA | 0.0881
47 | TCTTACCA | -0.21
48 | GCGGCGGA | 0.0979
49 | GAGCTATC | -0.0679
50 | CCTTATGC | 0.0214

Row | Sequence | PBM E-score
51 | ATGACTGG | -0.228
52 | CCGTCCCG | -0.024
53 | GAGATGGC | -0.0162
54 | GTCCAGAA | -0.0139
55 | AAAATGGC | 0.0419
56 | CACAGTTC | -0.0106
57 | CACTTTCG | 0.229
58 | CGTCACCC | 0.0771
59 | CATAGCGA | 0.027
60 | GTCCCTGA | 0.0172
61 | AGGTGGGG | -0.168
62 | AATCCCTA | 0.0984
63 | AGGGCTAG | -0.232
64 | ACTATCCT | -0.0315
65 | AGCCTGGA | -0.328
66 | GAACGAAC | 0.121
67 | AAAGTCCA | -0.00416
68 | ATATAGAA | -0.059
69 | GTAGACTA | -0.244
70 | AGGGTCAG | -0.282
71 | AGACAGAC | 0.0875
72 | CTCAACTA | -0.0435
73 | ACTTACCA | -0.105
74 | CCTTGGGA | -0.158
75 | TAATAGAA | 0.158

Row | Sequence | PBM E-score
76 | AGTCGAGG | -0.102
77 | CGGGCTAA | -0.295
78 | ACCCCGAC | -0.154
79 | ACACAAAC | 0.0247
80 | CCCGATGC | -0.19
81 | GCCCTGGA | 0.0449
82 | AGAACCCA | -0.0314
83 | ACACCAGT | -0.157
84 | AGTCCTCC | -0.219
85 | CCACGAGA | 0.132
86 | CCCAGACA | -0.112
87 | GGCTATGA | -0.115
88 | TATTTGGA | -0.119
89 | CATAGGAA | 0.0223
90 | GAGGACCA | -0.0911
91 | GCACTGAC | -0.0867
92 | CGCGCAAC | -0.0533
93 | ATCCGTGC | 0.242
94 | GTGTGTTA | -0.0342
95 | AATCTAAT | -0.118
96 | CGGCGGAA | -0.0532
97 | ATGGACCA | -0.0277
98 | AATTCGTC | 0.315
99 | ATCAATAG | -0.093
100 | AACCCTTC | -0.0433

Row | Sequence | PBM E-score
101 | CTCCCTCA | -0.0926
102 | CTAGAGTA | -0.123
103 | ACTATCCA | 0.0249
104 | ATAGGACA | -0.136
105 | CCACGTTA | 0.147
106 | AAATGGGG | -0.216
107 | AAGGCCGT | 0.0334
108 | CTTTTAAA | 0.0683
109 | ATTACCTG | -0.0452
110 | CCGCAGCA | -0.0406
111 | ACGCTTGA | 0.0331
112 | ACCGCATG | 0.105
113 | AGTGTTAC | 0.0125
114 | AGGCGCCG | 0.147
115 | AAGGCTTA | -0.214
116 | AAATGGCA | 0.0205
117 | GTAGTATA | 0.146
118 | ATGGGACG | 0.0795
119 | CAAAGGGC | -0.155
120 | CATGCTCG | -0.0629
121 | GAGGGACA | -0.103
122 | ATGTTAAT | -0.0223
123 | TCCGTTCA | 0.0159
124 | AGAGTACG | 0.01
125 | CCAGCCGC | -0.0671

Row | Sequence | PBM E-score
126 | AGATTAAA | 0.296
127 | CCATTGAC | -0.0286
128 | ATTCTAAA | 0.122
129 | CGAAGGAA | -0.179
130 | AACGTAAT | -0.0392
131 | AGGCTCGC | -0.173
132 | ATAAGGGA | -0.0279
133 | ATCGGAGC | -0.0319
134 | AATTAGAA | -0.0607
135 | AGGCGGGC | -0.0458
136 | ACATGTCA | 0.221
137 | ACTGACCC | -0.252
138 | CGGGTCTA | -0.0341
139 | AGTAGTGG | -0.0083
140 | AGAACTCA | -0.123
141 | ACCCGTAC | 0.299
142 | ATAAAGGC | -0.147
143 | AACTGCAG | -0.167
144 | GTTATTAA | 0.0652
145 | AGTGATCA | 0.416
146 | GGCGCACC | -0.238
147 | CCAAACCA | -0.0474
148 | AGACGTAT | 0.084
149 | ACACGCAA | -0.0276
150 | GCCCCGGA | -0.217

Looked up above.
ATCCGTGC – PBM E-score: 0.242
AAATGGGG – PBM E-score: -0.216
GTAGTATA – PBM E-score: 0.146
ACTTACCA – PBM E-score: -0.105
ATTCTAAA – PBM E-score: 0.122
AAGGCCGT – PBM E-score: 0.0334
AACCTGAA – PBM E-score: -0.274

The listing continues:

Row | Sequence | PBM E-score
151 | GCAACCCA | 0.00802
152 | GCTGCAGA | -0.106
153 | GACACTTA | -0.0374
154 | AAACACTT | 0.0186
155 | ATGTCAAA | 0.108
156 | TAGGATCA | 0.183
157 | AACGCGAG | -0.00027
158 | AGTTTGAT | 0.0104
159 | CAGACACC | 0.0176
160 | CAACCCCA | -0.195
161 | CAAAGTGA | 0.28
162 | ACGATACG | 0.334
163 | CGGTCTCC | -0.336
164 | CGAAGGGA | -0.118
165 | GGCAACGA | 0.187
166 | GAATCGGA | -0.1
167 | CCCGACCG | -0.167
168 | CTAGTCCA | -0.122
169 | CACCGTGC | 0.246
170 | CCCGGACC | -0.275
171 | CCGCGGAA | -0.0498
172 | CTCTGACA | 0.0737
